# Data reported in the supplement of paper PMC8728848.
# The other results are listed elsewhere or left out.
# B1: LERP (Drosophila melanogaster), B7Z0Q8 (protein)
# chain: MRCSLQKDCAAPTQENFRQMRFPIVISLLLLLFCSGESVAADAANQLKFSTTECKLKEPIYGSTFDFSGLHSDLAHVVKSMNIGGDQFEFNICGNLSRTCNGESNVAACLKRQGKEYILGRQHELFYNNGNMFLKYKSGAKCDNGTADKPNYQLHVMFSCDYTLDAQPMHVTPYANEVCSFYISYRTPLACLSIPEGLQSNSCRVGDTKSNGTFDLMPLSDSNYHTSNRQGAFFVINVCKPVLYGENSMCPAGSSVCLFDSKATNPKERFINFGNVQTHPVVEKGQLLLRHESPTPCAKNSSANYTSVIYFSCDKFIRNAHPEFAGLGADSCTYQFNFATPLACNDLKPCTAFTSTNELLDLSSLSSKPARTLLKDGKNYTIAVCAHAGAPCQENGGACYEQNSTTISLGNSNSQLRFNQTGSLYLLYEDGAECSTATGMRRWSTKIEFVCANNATKDNGASTAGGSDSLKIIEDSNCQLLIQYQTPLACREPIRCKATTYVDHTNDGLGSSGDELIDLTPLISATDNYEARVELPASMEHLVPKTTKFFLNVCRPLVPKYQLGCAGGSAACMAKVTAAGAPEEERSMGFPLVSLTQRNRTFAELAYLKGDPCPTDNTSELSTHILFNCNMRAGRGQPVLRSVEDCAYRFEWETNVFCPPHECTFSADTCDLVHDELGRRFNFKSAPFTKDGKIEIDYNATKMSVNICGAHRKAMTDYSQALVNIFFTHESPNCGREGTMNVQIRLICSDQTESSSTISSDQQCNLLYVQRTPSICEFLSLGATQQNFESNGSTSSSTSSSSTSTTTSTTTQASPAGKPTKAATSTTTTTVGPDPAATPIGPTASVGTILGAILSVTFCVTCLGLLAFSPARRQRIRRLFRRSNSAVRYSRVQSNEEANLLLEPNGEFTESDDDMLL
# Columns and labels:
# Assay in all cases: glycan array binding signal (z-score within array); higher = stronger binding
# Conditions in all cases: glycan notation: IUPAC condensed, linker removed
# [1] = target: Fuc(a1-2)[Gal(a1-3)]Gal
# How it was run: (§1)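 The Consortium for Functional Glycomics database supplied 3228 glycan arrays, of which those lacking an available protein sequence were dropped. The binding signal, a within-array Z-score, was averaged across arrays of the same protein sequence and across linkers. Negative scores can be read as non-binding.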
# [2] = target: Fuc(a1-2)[Gal(a1-3)]Gal(b1-3)GlcNAc
# How it was run: as §1
# [3] = target: Fuc(a1-2)[Gal(a1-3)]Gal(b1-3)GlcNAc(b1-2)Man(a1-3)[Fuc(a1-2)[Gal(a1-3)]Gal(b1-3)GlcNAc(b1-2)Man(a1-6)]Man(b1-4)GlcNAc(b1-4)GlcNAc
# How it was run: as §1
# [4] = target: Fuc(a1-2)[Gal(a1-3)]Gal(b1-4)Glc
# How it was run: as §1
# [5] = target: Fuc(a1-2)[Gal(a1-3)]Gal(b1-4)GlcNAc
# How it was run: as §1
# [6] = target: Fuc(a1-2)[Gal(a1-3)]Gal(b1-4)GlcNAc(b1-2)Man(a1-3)[Fuc(a1-2)[Gal(a1-3)]Gal(b1-4)GlcNAc(b1-2)Man(a1-6)]Man(b1-4)GlcNAc(b1-4)GlcNAc
# How it was run: as §1
# [7] = target: Fuc(a1-2)[Gal(a1-3)]Gal(b1-4)[Fuc(a1-3)]GlcNAc
# How it was run: as §1
# [8] = target: Fuc(a1-2)[Gal(a1-4)]Gal(b1-4)GlcNAc
# How it was run: as §1
# [9] = target: Fuc(a1-2)[GalNAc(a1-3)]Gal
# How it was run: as §1
# [10] = target: Fuc(a1-2)[GalNAc(a1-3)]Gal(b1-3)GalNAc(a1-3)[Fuc(a1-2)]Gal(b1-4)GlcNAc
# How it was run: as §1
# [11] = target: Fuc(a1-2)[GalNAc(a1-3)]Gal(b1-3)GlcNAc
# How it was run: as §1
# [12] = target: Fuc(a1-2)[GalNAc(a1-3)]Gal(b1-3)GlcNAc(b1-2)Man(a1-3)[Fuc(a1-2)[GalNAc(a1-3)]Gal(b1-3)GlcNAc(b1-2)Man(a1-6)]Man(b1-4)GlcNAc(b1-4)GlcNAc
# How it was run: as §1
# [13] = target: Fuc(a1-2)[GalNAc(a1-3)]Gal(b1-4)Glc
# How it was run: as §1
# [14] = target: Fuc(a1-2)[GalNAc(a1-3)]Gal(b1-4)GlcNAc
# How it was run: as §1
# [15] = target: Fuc(a1-2)[GalNAc(a1-3)]Gal(b1-4)GlcNAc(b1-2)Man(a1-3)[Fuc(a1-2)[GalNAc(a1-3)]Gal(b1-4)GlcNAc(b1-2)Man(a1-6)]Man(b1-4)GlcNAc(b1-4)GlcNAc
# How it was run: as §1
# [16] = target: Fuc(a1-2)[GalNAc(a1-3)]Gal(b1-4)GlcNAc(b1-3)Gal(b1-4)GlcNAc
# How it was run: as §1
# [17] = target: Fuc(a1-2)[GalNAc(a1-3)]Gal(b1-4)GlcNAc(b1-3)Gal(b1-4)GlcNAc(b1-3)Gal(b1-4)GlcNAc
# How it was run: as §1
# [18] = target: Fuc(a1-2)[GalNAc(a1-3)]Gal(b1-4)[Fuc(a1-3)]GlcNAc
# How it was run: as §1
# [19] = target: Fuc(a1-2)[GalNAc(a1-4)]Gal(b1-4)GlcNAc
# How it was run: as §1
# [20] = target: Fuc(a1-2)[GalNAc(b1-3)]Gal
# How it was run: as §1
# [21] = target: Fuc(a1-3)GlcNAc
# How it was run: as §1
# [22] = target: Fuc(a1-3)[Gal(b1-4)]Glc6S
# How it was run: as §1
# [23] = target: Fuc(a1-3)[Gal(b1-4)]GlcNAc
# How it was run: as §1
# [24] = target: Fuc(a1-3)[Gal(b1-4)]GlcNAc(b1-2)Man(a1-3)[Fuc(a1-3)[Gal(b1-4)]GlcNAc(b1-2)Man(a1-6)]Man(b1-4)GlcNAc(b1-4)GlcNAc
# How it was run: as §1
# [25] = target: Fuc(a1-3)[Gal(b1-4)]GlcNAc(b1-3)Gal(b1-3)[Fuc(a1-4)]GlcNAc
# How it was run: as §1
# [26] = target: Fuc(a1-3)[Gal(b1-4)]GlcNAc(b1-3)GalNAc
# How it was run: as §1
# [27] = target: Fuc(a1-3)[Gal(b1-4)]GlcNAc(b1-4)Gal(b1-4)[Fuc(a1-3)]GlcNAc
# How it was run: as §1
# [28] = target: Fuc(a1-3)[Gal(b1-4)]GlcNAc(b1-4)Gal(b1-4)[Fuc(a1-3)]GlcNAc(b1-4)Gal(b1-4)[Fuc(a1-3)]GlcNAc
# How it was run: as §1
# [29] = target: Fuc(a1-3)[Gal(b1-4)]GlcNAc(b1-6)[Gal(b1-3)GlcNAc(b1-3)]Gal(b1-4)Glc
# How it was run: as §1
# [30] = target: Fuc(a1-3)[Gal(b1-4)]GlcNAc6S
# How it was run: as §1
binder,measurement,setting,value
B1,glycan array binding signal (z-score),[1],0.417
same,glycan array binding signal (z-score),[2],1.17
same,glycan array binding signal (z-score),[3],-0.398
same,glycan array binding signal (z-score),[4],-1
same,glycan array binding signal (z-score),[5],1.07
same,glycan array binding signal (z-score),[6],0.988
same,glycan array binding signal (z-score),[7],0.981
same,glycan array binding signal (z-score),[8],0.206
same,glycan array binding signal (z-score),[9],0.38
same,glycan array binding signal (z-score),[10],-1
same,glycan array binding signal (z-score),[11],-0.249
same,glycan array binding signal (z-score),[12],-0.758
same,glycan array binding signal (z-score),[13],-0.054
same,glycan array binding signal (z-score),[14],0.43
same,glycan array binding signal (z-score),[15],1.91
same,glycan array binding signal (z-score),[16],1.31
same,glycan array binding signal (z-score),[17],-0.17
same,glycan array binding signal (z-score),[18],1.65
same,glycan array binding signal (z-score),[19],-0.461
same,glycan array binding signal (z-score),[20],-0.534
same,glycan array binding signal (z-score),[21],-0.507
same,glycan array binding signal (z-score),[22],-0.768
same,glycan array binding signal (z-score),[23],-0.319
same,glycan array binding signal (z-score),[24],-0.527
same,glycan array binding signal (z-score),[25],-0.349
same,glycan array binding signal (z-score),[26],0.32
same,glycan array binding signal (z-score),[27],1.21
same,glycan array binding signal (z-score),[28],-0.153
same,glycan array binding signal (z-score),[29],0.093
same,glycan array binding signal (z-score),[30],0.023

# Reformatted with bars between the fields: entries from further up.
binder | measurement | setting | value
B1 | glycan array binding signal (z-score) | [6] | 0.988
same | glycan array binding signal (z-score) | [11] | -0.249
